These are yes or no findings as the source states them, for the method shown. Some results given as binding are weak or reduced against the parent protein; the word gives no strength.
How the values were obtained:
muOPG [22-293] (mouse) = muOPG [22-293] (mouse) (UniProt O08712); test: homodimerization; non-reducing SDS-PAGE and western blot
muOPG [22-401] (mouse) [1] = target: muOPG [22-401] (mouse) (UniProt O08712); test: self-association; reducing vs non-reducing SDS-PAGE and western blot of CHO conditioned media
muOPG [22-401] (mouse) [2] = target: muOPG [22-401] (mouse) (UniProt O08712); test: self-association; 35S pulse-chase, immunoprecipitation, non-reducing SDS-PAGE
muOPG [22-401] (mouse) [3] = target: muOPG [22-401] (mouse) (UniProt O08712); test: self-association of purified monomer on storage; SDS-PAGE
muOPG [22-401] (mouse) [4] = target: muOPG [22-401] (mouse) (UniProt O08712); test: self-association; nonreducing SDS gels
[5] = target: OPG expressed as a naturally occurring product from the CTLL-2 murine cytotoxic T lymphocytic cell line (mouse) (UniProt O08712); test: self-association; non-reducing SDS-PAGE and western blot of CTLL-2 conditioned media
[6] = target: OPG expressed as a naturally occurring product from the CTLL-2 murine cytotoxic T lymphocytic cell line (mouse) (UniProt O08712); test: self-association; nonreducing SDS gels
muOPG [22-355] (mouse) = muOPG [22-355] (mouse) (UniProt O08712); test: homodimerization; non-reducing SDS-PAGE and western blot

B1: muOPG [22-293] (receptor)
chain: ETLLPKYLHYDPETGHQLLCDKCAPGTYLKQHCTVRRKTLCVPCPDHSYTDSWHTSDECVYCSPVCKELQSVKQECNRTHNRVCECEEGRYLEIEFCLKHRSCPPGSGVVQAGTPERNTVCKKCPDGFFSGETSSKAPCIKHTNCSTFGLLLIQKGNATHDNCCSGNREATQKCGIDVTLCEEAFFRFAVPTKIIPNWLSVLVDSLPGTKVNAESVERIKRRHSSQEQTFQLLKLWKHQNRDQEMVKKIIQDIDLCESSVQRHLGHSNLTTE
binding (muOPG [22-293] (mouse)): binds

B2: muOPG [22-401] (receptor)
chain: ETLLPKYLHYDPETGHQLLCDKCAPGTYLKQHCTVRRKTLCVPCPDHSYTDSWHTSDECVYCSPVCKELQSVKQECNRTHNRVCECEEGRYLEIEFCLKHRSCPPGSGVVQAGTPERNTVCKKCPDGFFSGETSSKAPCIKHTNCSTFGLLLIQKGNATHDNCCSGNREATQKCGIDVTLCEEAFFRFAVPTKIIPNWLSVLVDSLPGTKVNAESVERIKRRHSSQEQTFQLLKLWKHQNRDQEMVKKIIQDIDLCESSVQRHLGHSNLTTEQLLALMESLPGKKISPEEIERTRKTCKSSEQLLKLLSLWRIKNGDQDTLKGLMYALKHLKTSHFPKTVTHSLRKTMRFLHSFTMYRLYQKLFLEMIGNQVQSVKISCL
binding (muOPG [22-401] (mouse) [1]): binds
binding (muOPG [22-401] (mouse) [2]): binds
binding (muOPG [22-401] (mouse) [3]): binds
binding (muOPG [22-401] (mouse) [4]): binds

B3: OPG expressed as a naturally occurring product from the CTLL-2 murine cytotoxic T lymphocytic cell line (receptor)
chain: B2 chain
binding [5]: binds
binding [6]: binds

B4: muOPG [22-355] (receptor)
chain: ETLLPKYLHYDPETGHQLLCDKCAPGTYLKQHCTVRRKTLCVPCPDHSYTDSWHTSDECVYCSPVCKELQSVKQECNRTHNRVCECEEGRYLEIEFCLKHRSCPPGSGVVQAGTPERNTVCKKCPDGFFSGETSSKAPCIKHTNCSTFGLLLIQKGNATHDNCCSGNREATQKCGIDVTLCEEAFFRFAVPTKIIPNWLSVLVDSLPGTKVNAESVERIKRRHSSQEQTFQLLKLWKHQNRDQEMVKKIIQDIDLCESSVQRHLGHSNLTTEQLLALMESLPGKKISPEEIERTRKTCKSSEQLLKLLSLWRIKNGDQDTLKGLMYALKHLKTS
binding (muOPG [22-355] (mouse)): binds

— patent publication US7005413 (Amgen, dated 2006)
